Measurements from patent US20110313046A1, “COMBINATION THERAPY WITH LISDEXAMPHETAMINE AND EXTENDED RELEASE GUANFACINE” (priority 2010, published 2011).
The name of at least one read-out is uncertain.

Key:
[1] = d-Amphetamine plasma pharmacokinetics, crossover drug-drug interaction study; type: in vivo, healthy adults; conditions: between the two treatments
Protocol: (§1) An open-label, randomized, single-center, 3-period, crossover, drug-drug interaction study in 42 healthy adults (18-45 years old) was performed. Subjects received three single, oral dose treatments: 4 mg extended release guanfacine, 50 mg lisdexamphetmaine, and 4 mg extended release guanfacine in combination with 50 mg lisdexamphetmaine. Subjects underwent the three treatment periods with a 7-day washout between each treatment.

[2] = Lisdexamphetamine plasma pharmacokinetics, crossover drug-drug interaction study; type: in vivo, healthy adults; conditions: single oral dose 50 mg
Protocol: as §1

SMILES: C[C@@H](Cc1ccccc1)NC(=O)[C@@H](N)CCCCN [VYVANSE Alone, lisdexamphetamine dimesylate]
- weight normalized Vz/F, alone compared with combination [1]: essentially the same
- lisdexamphetamine VZ/F, Max [2]: 3124.01 L
- lisdexamphetamine VZ/F, Min [2]: 288.17 L
- lisdexamphetamine VZ/F, Max ([2]; weight normalized): 34.83 L/kg
- lisdexamphetamine VZ/F, Min ([2]; weight normalized): 3.81 L/kg
